Our source for the binding values is publication PMC8877285.

Sequences of proteins named here, by UniProt entry; tags and fusion partners are left off. Residues count along the entry.
UniProt Q9WUM5, residues 35-346: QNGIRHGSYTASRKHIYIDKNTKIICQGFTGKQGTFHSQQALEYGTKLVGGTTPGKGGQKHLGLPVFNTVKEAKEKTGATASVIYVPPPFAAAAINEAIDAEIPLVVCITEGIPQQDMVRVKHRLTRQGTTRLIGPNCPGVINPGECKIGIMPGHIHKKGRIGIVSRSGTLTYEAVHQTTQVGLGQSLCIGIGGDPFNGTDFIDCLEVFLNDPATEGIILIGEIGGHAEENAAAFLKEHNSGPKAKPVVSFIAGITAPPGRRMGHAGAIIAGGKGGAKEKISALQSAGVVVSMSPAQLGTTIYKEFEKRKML
UniProt O35129: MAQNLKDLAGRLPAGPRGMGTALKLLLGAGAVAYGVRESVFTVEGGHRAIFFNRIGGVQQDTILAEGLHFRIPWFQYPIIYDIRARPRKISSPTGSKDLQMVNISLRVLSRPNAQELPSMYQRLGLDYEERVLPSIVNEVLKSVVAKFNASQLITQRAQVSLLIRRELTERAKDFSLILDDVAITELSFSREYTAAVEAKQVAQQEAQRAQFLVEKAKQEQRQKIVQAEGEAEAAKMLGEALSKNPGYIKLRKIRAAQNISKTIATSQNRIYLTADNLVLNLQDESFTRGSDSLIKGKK
UniProt Q9DCX2: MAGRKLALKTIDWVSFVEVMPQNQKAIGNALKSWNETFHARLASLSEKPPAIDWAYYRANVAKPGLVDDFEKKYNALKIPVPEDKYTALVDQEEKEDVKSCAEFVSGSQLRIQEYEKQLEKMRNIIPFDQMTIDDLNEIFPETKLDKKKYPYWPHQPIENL
UniProt Q9CQ75: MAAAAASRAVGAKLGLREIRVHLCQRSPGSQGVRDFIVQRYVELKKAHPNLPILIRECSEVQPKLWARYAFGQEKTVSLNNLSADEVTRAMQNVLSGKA
UniProt Q91X83: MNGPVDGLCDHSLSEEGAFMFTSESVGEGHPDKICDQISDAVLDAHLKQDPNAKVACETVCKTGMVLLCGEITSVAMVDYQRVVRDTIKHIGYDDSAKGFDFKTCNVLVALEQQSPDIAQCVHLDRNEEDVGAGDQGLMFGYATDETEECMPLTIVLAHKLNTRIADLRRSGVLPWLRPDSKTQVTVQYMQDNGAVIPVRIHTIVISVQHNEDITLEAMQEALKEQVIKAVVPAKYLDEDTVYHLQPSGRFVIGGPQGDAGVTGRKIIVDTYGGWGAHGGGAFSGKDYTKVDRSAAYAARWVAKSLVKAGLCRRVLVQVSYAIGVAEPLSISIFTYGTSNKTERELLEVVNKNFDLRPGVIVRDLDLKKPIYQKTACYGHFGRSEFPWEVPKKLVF
UniProt P48776: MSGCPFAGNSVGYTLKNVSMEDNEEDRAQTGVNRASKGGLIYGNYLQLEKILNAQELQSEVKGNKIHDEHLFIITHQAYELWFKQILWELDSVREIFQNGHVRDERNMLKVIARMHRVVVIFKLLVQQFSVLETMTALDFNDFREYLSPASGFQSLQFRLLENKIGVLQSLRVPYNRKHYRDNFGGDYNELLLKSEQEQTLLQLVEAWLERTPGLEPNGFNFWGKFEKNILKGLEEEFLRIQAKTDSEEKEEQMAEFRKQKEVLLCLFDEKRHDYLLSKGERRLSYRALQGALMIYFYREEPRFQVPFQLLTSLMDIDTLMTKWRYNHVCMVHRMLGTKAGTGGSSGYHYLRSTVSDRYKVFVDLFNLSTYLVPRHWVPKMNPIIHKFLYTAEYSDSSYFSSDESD
UniProt P02104: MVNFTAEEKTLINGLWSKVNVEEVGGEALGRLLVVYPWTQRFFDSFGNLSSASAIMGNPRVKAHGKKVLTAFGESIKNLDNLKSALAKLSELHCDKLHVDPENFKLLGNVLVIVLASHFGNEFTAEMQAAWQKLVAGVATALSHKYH
UniProt P11679: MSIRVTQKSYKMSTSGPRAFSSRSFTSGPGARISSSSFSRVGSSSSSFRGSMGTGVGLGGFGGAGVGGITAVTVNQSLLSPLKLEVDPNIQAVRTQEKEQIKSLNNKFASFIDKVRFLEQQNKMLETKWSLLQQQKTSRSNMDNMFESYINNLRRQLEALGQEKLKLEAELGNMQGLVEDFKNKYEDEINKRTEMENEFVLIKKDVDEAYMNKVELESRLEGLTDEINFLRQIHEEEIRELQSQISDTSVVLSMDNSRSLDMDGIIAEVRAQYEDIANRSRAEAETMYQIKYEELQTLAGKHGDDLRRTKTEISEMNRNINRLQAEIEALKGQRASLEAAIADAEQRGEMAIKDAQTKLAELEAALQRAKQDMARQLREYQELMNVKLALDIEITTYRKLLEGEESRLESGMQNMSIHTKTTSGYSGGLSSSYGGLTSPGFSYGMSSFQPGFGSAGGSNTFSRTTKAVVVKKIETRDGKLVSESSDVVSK
UniProt P68372: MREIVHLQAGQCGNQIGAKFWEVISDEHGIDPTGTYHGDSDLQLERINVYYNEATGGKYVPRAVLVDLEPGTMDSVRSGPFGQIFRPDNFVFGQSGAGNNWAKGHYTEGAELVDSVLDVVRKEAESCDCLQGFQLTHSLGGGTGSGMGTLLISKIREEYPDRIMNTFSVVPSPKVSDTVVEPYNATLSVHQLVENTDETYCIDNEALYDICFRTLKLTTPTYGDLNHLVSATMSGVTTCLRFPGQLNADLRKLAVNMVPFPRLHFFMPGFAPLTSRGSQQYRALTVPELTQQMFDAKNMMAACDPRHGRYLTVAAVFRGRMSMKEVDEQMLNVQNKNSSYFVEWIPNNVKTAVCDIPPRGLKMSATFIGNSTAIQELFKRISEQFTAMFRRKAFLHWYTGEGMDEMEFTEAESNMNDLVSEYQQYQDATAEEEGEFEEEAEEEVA
UniProt P14106, residues 26-253: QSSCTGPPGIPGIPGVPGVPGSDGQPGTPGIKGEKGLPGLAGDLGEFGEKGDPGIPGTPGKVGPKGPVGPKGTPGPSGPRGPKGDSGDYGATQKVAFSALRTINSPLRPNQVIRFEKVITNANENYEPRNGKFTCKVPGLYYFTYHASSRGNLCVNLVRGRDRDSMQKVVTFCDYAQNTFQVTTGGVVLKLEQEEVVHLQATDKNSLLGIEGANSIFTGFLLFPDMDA
UniProt P53657: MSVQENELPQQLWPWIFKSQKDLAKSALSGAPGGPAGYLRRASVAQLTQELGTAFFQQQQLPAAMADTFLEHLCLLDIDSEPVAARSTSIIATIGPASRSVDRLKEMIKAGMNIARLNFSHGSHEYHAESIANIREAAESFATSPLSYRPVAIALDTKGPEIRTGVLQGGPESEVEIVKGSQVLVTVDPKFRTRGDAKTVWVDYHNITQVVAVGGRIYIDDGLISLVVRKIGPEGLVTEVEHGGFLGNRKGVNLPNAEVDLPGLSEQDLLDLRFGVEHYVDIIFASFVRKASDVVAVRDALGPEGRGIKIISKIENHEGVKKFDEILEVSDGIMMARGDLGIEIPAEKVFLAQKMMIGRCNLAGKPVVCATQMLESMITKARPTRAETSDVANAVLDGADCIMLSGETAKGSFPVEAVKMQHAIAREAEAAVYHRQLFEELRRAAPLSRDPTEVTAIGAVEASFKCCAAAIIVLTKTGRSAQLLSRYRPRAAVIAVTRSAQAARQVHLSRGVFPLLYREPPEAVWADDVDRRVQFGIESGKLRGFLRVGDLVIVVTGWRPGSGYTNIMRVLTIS
UniProt O08573: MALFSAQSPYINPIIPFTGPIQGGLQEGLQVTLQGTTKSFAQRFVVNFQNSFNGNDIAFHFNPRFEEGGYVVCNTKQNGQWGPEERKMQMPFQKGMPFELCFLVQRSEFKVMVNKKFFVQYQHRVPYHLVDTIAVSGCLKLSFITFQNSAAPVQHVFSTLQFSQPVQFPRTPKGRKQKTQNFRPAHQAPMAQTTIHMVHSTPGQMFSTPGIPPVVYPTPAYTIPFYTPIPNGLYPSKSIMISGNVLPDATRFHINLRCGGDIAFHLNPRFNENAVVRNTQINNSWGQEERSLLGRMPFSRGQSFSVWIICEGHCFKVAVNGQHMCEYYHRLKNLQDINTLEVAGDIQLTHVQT
UniProt P26039: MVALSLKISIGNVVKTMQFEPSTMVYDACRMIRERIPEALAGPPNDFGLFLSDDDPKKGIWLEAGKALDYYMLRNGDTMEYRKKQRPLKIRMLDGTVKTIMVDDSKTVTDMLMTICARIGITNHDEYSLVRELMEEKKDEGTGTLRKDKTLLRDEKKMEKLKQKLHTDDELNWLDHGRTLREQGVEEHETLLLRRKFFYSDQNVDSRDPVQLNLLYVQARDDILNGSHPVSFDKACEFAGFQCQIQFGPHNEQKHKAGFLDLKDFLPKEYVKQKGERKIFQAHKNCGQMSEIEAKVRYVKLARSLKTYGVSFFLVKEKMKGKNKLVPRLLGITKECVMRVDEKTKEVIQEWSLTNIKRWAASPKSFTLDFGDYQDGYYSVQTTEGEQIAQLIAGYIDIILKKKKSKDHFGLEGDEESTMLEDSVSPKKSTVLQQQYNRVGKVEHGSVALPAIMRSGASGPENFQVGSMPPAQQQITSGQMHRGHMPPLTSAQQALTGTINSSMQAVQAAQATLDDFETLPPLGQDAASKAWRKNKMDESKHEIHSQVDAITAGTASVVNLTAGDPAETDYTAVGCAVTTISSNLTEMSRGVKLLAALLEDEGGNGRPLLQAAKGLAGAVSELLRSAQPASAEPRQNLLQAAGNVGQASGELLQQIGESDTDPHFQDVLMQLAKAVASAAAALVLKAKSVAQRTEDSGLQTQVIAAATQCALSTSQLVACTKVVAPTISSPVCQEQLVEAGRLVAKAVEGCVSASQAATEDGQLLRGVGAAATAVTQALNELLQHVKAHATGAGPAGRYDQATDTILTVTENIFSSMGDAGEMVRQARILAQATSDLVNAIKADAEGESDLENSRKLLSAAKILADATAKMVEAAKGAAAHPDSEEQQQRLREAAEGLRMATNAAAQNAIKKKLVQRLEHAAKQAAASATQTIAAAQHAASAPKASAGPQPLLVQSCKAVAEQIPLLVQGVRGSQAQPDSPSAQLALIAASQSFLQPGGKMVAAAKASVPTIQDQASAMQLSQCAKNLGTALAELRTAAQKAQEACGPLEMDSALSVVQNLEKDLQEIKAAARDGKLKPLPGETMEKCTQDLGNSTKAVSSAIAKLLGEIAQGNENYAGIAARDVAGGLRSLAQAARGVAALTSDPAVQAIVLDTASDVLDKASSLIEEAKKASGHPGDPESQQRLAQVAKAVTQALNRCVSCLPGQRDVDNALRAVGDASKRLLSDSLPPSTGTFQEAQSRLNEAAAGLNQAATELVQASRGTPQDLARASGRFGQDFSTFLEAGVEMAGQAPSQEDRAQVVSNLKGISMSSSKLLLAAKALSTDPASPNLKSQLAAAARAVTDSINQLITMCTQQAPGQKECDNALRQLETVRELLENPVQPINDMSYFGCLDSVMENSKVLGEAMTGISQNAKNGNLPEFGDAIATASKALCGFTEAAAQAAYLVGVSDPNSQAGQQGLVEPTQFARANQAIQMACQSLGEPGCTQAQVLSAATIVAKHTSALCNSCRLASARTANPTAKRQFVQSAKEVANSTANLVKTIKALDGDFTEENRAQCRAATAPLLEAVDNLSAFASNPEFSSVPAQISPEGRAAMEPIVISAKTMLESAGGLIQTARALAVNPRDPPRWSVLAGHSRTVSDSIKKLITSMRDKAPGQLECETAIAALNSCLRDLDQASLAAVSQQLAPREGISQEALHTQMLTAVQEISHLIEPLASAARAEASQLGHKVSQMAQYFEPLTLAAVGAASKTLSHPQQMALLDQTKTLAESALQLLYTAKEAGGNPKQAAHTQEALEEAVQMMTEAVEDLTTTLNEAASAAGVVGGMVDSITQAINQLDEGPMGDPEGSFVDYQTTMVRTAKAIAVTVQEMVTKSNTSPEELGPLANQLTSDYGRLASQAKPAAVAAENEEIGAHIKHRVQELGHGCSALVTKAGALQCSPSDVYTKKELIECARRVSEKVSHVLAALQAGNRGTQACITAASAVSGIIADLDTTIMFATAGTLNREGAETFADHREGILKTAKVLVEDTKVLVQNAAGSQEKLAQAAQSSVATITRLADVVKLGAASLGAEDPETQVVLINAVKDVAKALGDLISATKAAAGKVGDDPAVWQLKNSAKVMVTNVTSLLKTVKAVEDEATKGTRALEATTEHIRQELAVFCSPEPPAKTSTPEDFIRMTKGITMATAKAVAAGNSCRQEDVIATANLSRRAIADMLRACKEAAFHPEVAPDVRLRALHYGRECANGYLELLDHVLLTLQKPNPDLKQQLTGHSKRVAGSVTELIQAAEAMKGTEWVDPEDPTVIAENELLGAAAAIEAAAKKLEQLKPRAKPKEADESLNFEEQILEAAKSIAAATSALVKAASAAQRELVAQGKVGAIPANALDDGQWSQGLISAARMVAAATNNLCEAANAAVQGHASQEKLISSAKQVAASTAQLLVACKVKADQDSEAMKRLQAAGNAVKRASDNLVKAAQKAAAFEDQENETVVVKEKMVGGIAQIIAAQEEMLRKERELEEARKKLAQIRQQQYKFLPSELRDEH

No constants are given. Whether binding was seen depends on the method and setting. Binding seen in cells or lysates may run through a third protein. These calls come from enrichment with a bait or labelling near it, and not all partners need be listed. Sequences can lack the tags named with a protein.

The assay addresses T1, flavin-containing monooxygenase 3 (FMO3) (mouse (endogenous in mouse liver)) (UniProt P97501).
T1 sequence: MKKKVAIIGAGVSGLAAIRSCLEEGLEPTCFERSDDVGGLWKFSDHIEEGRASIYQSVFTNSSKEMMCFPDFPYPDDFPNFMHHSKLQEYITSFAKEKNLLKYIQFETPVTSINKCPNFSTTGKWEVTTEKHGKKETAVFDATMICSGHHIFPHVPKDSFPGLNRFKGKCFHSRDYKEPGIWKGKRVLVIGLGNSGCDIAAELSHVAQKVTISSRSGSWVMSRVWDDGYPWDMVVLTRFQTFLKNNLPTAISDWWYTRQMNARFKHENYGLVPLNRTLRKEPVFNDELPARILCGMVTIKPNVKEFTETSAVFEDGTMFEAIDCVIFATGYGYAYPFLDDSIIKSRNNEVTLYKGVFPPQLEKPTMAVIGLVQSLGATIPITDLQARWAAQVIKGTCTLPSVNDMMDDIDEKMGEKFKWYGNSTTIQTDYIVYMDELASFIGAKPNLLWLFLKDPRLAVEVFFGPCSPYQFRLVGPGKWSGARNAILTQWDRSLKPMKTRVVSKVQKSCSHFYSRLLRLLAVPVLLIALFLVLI
Put plainly: affinity purification with mass spectrometry; mouse liver extracts (vehicle or PCB-126-treated mice) in TBS (25 mM Tris pH 7.4, 150 mM NaCl, 1% NP-40, 5% glycerol, protease inhibitors), immunoprecipitated overnight at 4 °C with anti-FMO3 (Abnova) on protein A/G agarose; normal IgG IP as control; LC-MS/MS of the tryptic digest.

SUCLG1 (from UniProt Q9WUM5 35-346): the binding result is reported as “binds”. The result for PHB2 (from UniProt O35129 1-299) reads “binds”.

In the case of ATP5PD (from UniProt Q9DCX2 1-161), the binding entry is listed as “binds”. On to NDUFA2 (from UniProt Q9CQ75 1-99), for which the binding entry was “binds”. For the molecule GLUL (from UniProt P15105 1-373), the binding entry was “binds”.

On to MAT1A (from UniProt Q91X83 1-396), for which the binding entry is listed as “binds”. As to TDO2 (from UniProt P48776 1-406), the binding result is on record as “binds”. The result for HBB-Y (from UniProt P02104 1-147) reads “binds”. As to KRT8 (from UniProt P11679 1-490), the binding entry is on record as “binds”. As to VWA8 (from UniProt Q8CC88 46-1905), the binding entry is on record as “binds”.

On to TUBB4B (from UniProt P68372 1-445), for which the binding result is recorded as “binds”.

Regarding C1QB (from UniProt P14106 26-253), the binding entry is on record as “binds”. Turning to “complement C3 (from UniProt P01027 25-1663)”, the binding result is given as “binds”. Regarding PKLR (from UniProt P53657 1-574), the binding result is listed as “binds”. As for LGALS9 (from UniProt O08573 1-353), the binding entry is reported as “binds”.

Consider TLN1 (from UniProt P26039 1-2541), for which the binding entry is given as “binds”. The result for “C1RA (mouse (endogenous in mouse liver))” reads “binds”.

B1: mitochondrial carrier SLC25A3 (protein, UniProt Q8VEM8 46-357)
chain: AVEEYSCEFGSMKYYALCGFGGVLSCGLTHTAVVPLDLVKCRMQVDPQKYKGIFNGFSITLKEDGVRGLAKGWAPTLIGYSMQGLCKFGFYEVFKALYSNILGEENTYLWRTSLYLASSASAEFFADIALAPMEAAKVRIQTQPGYANTLREAVPKMYKEEGLNAFYKGVAPLWMRQIPYTMMKFACFERTVEALYKFVVPKPRSECTKAEQLVVTFVAGYIAGVFCAIVSHPADSVVSVLNKEKGSTASQVLQRLGFRGVWKGLFARIIMIGTLTALQWFIYDSVKVYFRLPRPPPPEMPESLKKKLGLTE
For the molecule B1, the binding entry is “binds”.

B2: keratin18 (protein, UniProt P05784 1-423)
chain: MSFTTRSTTFSTNYRSLGSVRTPSQRVRPASSAASVYAGAGGSGSRISVSRSVWGGSVGSAGLAGMGGIQTEKETMQDLNDRLASYLDKVKSLETENRRLESKIREHLEKKGPQGVRDWGHYFKIIEDLRAQIFANSVDNARIVLQIDNARLAADDFRVKYETELAMRQSVESDIHGLRKVVDDTNITRLQLETEIEALKEELLFMKKNHEEEVQGLEAQIASSGLTVEVDAPKSQDLSKIMADIRAQYEALAQKNREELDKYWSQQIEESTTVVTTKSAEIRDAETTLTELRRTLQTLEIDLDSMKNQNINLENSLGDVEARYKAQMEQLNGVLLHLESELAQTRAEGQRQAQEYEALLNIKVKLEAEIATYRRLLEDGEDFSLNDALDSSNSMQTVQKTTTRKIVDGRVVSETNDTRVLRH
Turning to B2, the binding entry is recorded as “binds”.

B3: carbamoylphosphate synthetase (CPS1) (protein, UniProt Q8C196 39-1500)
chain: LSVKAKTAHIVLEDGTKMKGYSFGHPSSVAGEVVFNTGLGGYPEALTDPAYKGQILTMANPIIGNGGAPDTTARDELGLNKYMESDGIKVAGLLVLNYSNDYNHWLATKSLGQWLQEEKVPAIYGVDTRMLTKIIRDKGTMLGKIEFEGQSVDFVDPNKQNLIAEVSTKDVKVFGKGNPTKVVAVDCGIKNNVIRLLVKRGAEVHLVPWNHDFTQMEYDGLLIAGGPGNPALAQPLIQNVKKILESDRKEPLFGISTGNIITGLAAGAKSYKMSMANRGQNQPVLNITNRQAFITAQNHGYALDNTLPAGWKPLFVNVNDQTNEGIMHESKPFFAVQFHPEVSPGPTDTEYLFDSFFSLIKKGKGTTITSVLPKPALVASRVEVSKVLILGSGGLSIGQAGEFDYSGSQAVKAMKEENVKTVLMNPNIASVQTNEVGLKQADAVYFLPITPQFVTEVIKAERPDGLILGMGGQTALNCGVELFKRGVLKEYGVKVLGTSVESIMATEDRQLFSDKLNEINEKIAPSFAVESMEDALKAADTIGYPVMIRSAYALGGLGSGICPNKETLIDLGTKAFAMTNQILVERSVTGWKEIEYEVVRDADDNCVTVCNMENVDAMGVHTGDSVVVAPAQTLSNAEFQMLRRTSVNVVRHLGIVGECNIQFALHPTSMEYCIIEVNARLSRSSALASKATGYPLAFIAAKIALGIPLPEIKNVVSGKTSACFEPSLDYMVTKIPRWDLDRFHGTSSRIGSSMKSVGEVMAIGRTFEESFQKALRMCHPSVDGFTPRLPMNKEWPANLDLKKELSEPSSTRIYAIAKALENNMSLDEIVRLTSIDKWFLYKMRDILNMDKTLKGLNSDSVTEETLRKAKEIGFSDKQISKCLGLTEAQTRELRLKKNIHPWVKQIDTLAAEYPSVTNYLYVTYNGQEHDIKFDEHGIMVLGCGPYHIGSSVEFDWCAVSSIRTLRQLGKKTVVVNCNPETVSTDFDECDKLYFEELSLERILDIYHQEACNGCIISVGGQIPNNLAVPLYKNGVKIMGTSPLQIDRAEDRSIFSAVLDELKVAQAPWKAVNTLNEALEFANSVGYPCLLRPSYVLSGSAMNVVFSEDEMKRFLEEATRVSQEHPVVLTKFVEGAREVEMDAVGKEGRVISHAISEHVEDAGVHSGDATLMLPTQTISQGAIEKVKDATRKIAKAFAISGPFNVQFLVKGNDVLVIECNLRASRSFPFVSKTLGVDFIDVATKVMIGESIDEKRLPTLEQPIIPSDYVAIKAPMFSWPRLRDADPILRCEMASTGEVACFGEGIHTAFLKAMLSTGFKIPQKGILIGIQQSFRPRFLGVAEQLHNEGFKLFATEATSDWLNANNVPATPVAWPSQEGQNPSLSSIRKLIRDGSIDLVINLPNNNTKFVHDNYVIRRTAVDSGIALLTNFQVTKLFAEAVQKSRTVDSKSLFHYRQYSAGKAA
On to B3, for which the binding result is reported as “binds”.

B4: serine hydroxymethyltransferase 1 (Shmt1) (protein, UniProt P50431 1-478)
chain: MADRDATLWASHEKMLSQPLKDSDAEVYSIIKKESNRQRVGLELIASENFASRAVLEALGSCLNNKYSEGYPGQRYYGGTEFIDELEMLCQKRALQAYHLDPQCWGVNVQPYSGSPANFAVYTALVEPHGRIMGLDLPDGGHLTHGFMTDKKKISATSIFFESMPYKVYPETGYINYDQLEENASLFHPKLIIAGTSCYSRNLDYARLRKIADDNGAYLMADMAHISGLVAAGVVPSPFEHCHVVTTTTHKTLRGCRAGMIFYRKGVRSVDPKTGKETYYELESLINSAVFPGLQGGPHNHAIAGVAVALKQAMTTEFKIYQLQVLANCRALSDALTELGYKIVTGGSDNHLILMDLRSKGTDGGRAEKVLEACSIACNKNTCPGDKSALRPSGLRLGTPALTSRGLLEEDFQKVAHFIHRGIELTLQIQSHMATKATLKEFKEKLAGDEKIQSAVATLREEVENFASNFSLPGLPDF
In the case of B4, the binding result is “binds”.

B5: MRI1 (protein, UniProt Q9CQT1 1-369)
chain: MTLEAIRYSPGSLQILDQLQLPEHCHYEALSSVQQASEAIRAMKVRGAPAIALVGCLSLAVELRAGAGGPGLAALVAFVRDQLRLLVAARPTAVNMARAARDLGQVAAQEAEREGATEETVRERVIRFAEDMLEKDLKDNRSIGDLGARHLLEQTNPRGGKVTVLTHCNTGALATAGYGTALGVIRSLHEMGRLEHTFCTETRPYNQGARLTAFELVYEQIPATLITDSMAAAAMAHRGVSAVVVGADRVVANGDTANKIGTYQLAIVAKHHGVPFYVAAPSSSCDLHLETGKEIVIEERPSQELTDLNGVRIAAQGIRVWNPAFDVTPHELITGGIITELGVFAPEELRGALSASVFSEGQTLDSPWV
For the molecule B5, the binding result is on record as “binds”.

B6: GYS2 (protein, UniProt Q8VCB3 1-704)
chain: MLRGRSLSVTSLGGLPVWEAERLPVEDLLLFEVSWEVTNKVGGICTVIQTKAKTTADEWGENYFLIGPYFEHNMKTQVEQCEPTNDAVRKAVDAMNKHGCQVHFGRWLIEGSPYVVLFDISSSAWNLDRWKGDFWEACGVGIPHHDREANDMLIFGSLTAWFLKEVTDHADGKHVIAQFHEWQAGTGLILSRARKLPIATVFTTHATLLGRYLCAANIDFYNQLDKFDIDKEAGERQIYHRYCMERASVHCAHVFTTVSEITAIEAEHMLKRKPDVVTPNGLNVKKFSAVHEFQNLHAMYKARIQDFVRGHFYGHLDFDLEKTLFLFIAGRYEFSNKGADIFLESLSRLNFLLRMHKSNVTVVVFFIMPAKTNNFNVETLKGQAVRKQLWDTVHCLKEKFGKKLYDGLLRGEIPDMNSILDRDDLTIMKRAIFSTQRQSLPPVTTHNMIDDSTDPILSTIRRIGLFNNRADRVKVILHPEFLSSTSPLLPMDYEEFVRGCHLGVFPSYYEPWGYTPAECTVMGIPSVTTNLSGFGCFVQEHVADPTAYGIYIVDRRFRSPDDSCNQLTQFLYGFCKQSRRQRIIQRNRTERLSDLLDWRYLGRYYQHARHLTLSRAFPDKFHLEPTSPPTTDGFKYPRPSSVPPSPSGSQASSPQCSDAEDEEDEDERYDEEEEAERDRLNIKSPFSLNHFPKGKKKLHGEYKN
Take B6: the binding entry is “binds”.

B7: GSTM1 (protein, UniProt P10649 1-218)
chain: MPMILGYWNVRGLTHPIRMLLEYTDSSYDEKRYTMGDAPDFDRSQWLNEKFKLGLDFPNLPYLIDGSHKITQSNAILRYLARKHHLDGETEEERIRADIVENQVMDTRMQLIMLCYNPDFEKQKPEFLKTIPEKMKLYSEFLGKRPWFAGDKVTYVDFLAYDILDQYRMFEPKCLDAFPNLRDFLARFEGLKKISAYMKSSRYIATPIFSKMAHWSNK
For the molecule B7, the binding result is given as “binds”.

B8: argininosuccinate synthetase (ASS) (protein, UniProt P16460 1-412)
chain: MSSKGSVVLAYSGGLDTSCILVWLKEQGYDVIAYLANIGQKEDFEEARKKALKLGAKKVFIEDVSKEFVEEFIWPAVQSSALYEDRYLLGTSLARPCIARRQVEIAQREGAKYVSHGATGKGNDQVRFELTCYSLAPQIKVIAPWRMPEFYNRFKGRNDLMEYAKQHGIPIPVTPKSPWSMDENLMHISYEAGILENPKNQAPPGLYTKTQDPAKAPNSPDVLEIEFKKGVPVKVTNIKDGTTRTTSLELFMYLNEVAGKHGVGRIDIVENRFIGMKSRGIYETPAGTILYHAHLDIEAFTMDREVRKIKQGLGLKFAELVYTGFWHSPECEFVRHCIQKSQERVEGKVQVSVFKGQVYILGRESPLSLYNEELVSMNVQGDYEPIDATGFININSLRLKEYHRLQSKVTAK
For the molecule B8, the binding result is recorded as “binds”.
